Values quoted from earlier work, collected in patent publication US11000635B2, “Antimicrobial compositions comprising minocycline and oxidized cellulose” (priority 2017, dated 2021).
At least one structure is not confirmed: it was looked up by name or label, or the drawing left a doubt.

System: S. aureus
Details: published values; cited from earlier work

| Compound | MIC values for S. aureus according to CLSI [µg/mL] |
| --- | --- |
| CCC[C@@H]1C[C@@H](C(=O)N[C@@H]([C@H]2O[C@H](SC)[C@H](O)[C@@H](O)[C@H]2O)[C@H](C)Cl)N(C)C1 [Clindamycin, clindamycin] | 0.06 to 0.25 |
| CN(C)c1ccc(O)c2c1C[C@H]1C[C@H]3[C@H](N(C)C)C(O)=C(C(N)=O)C(=O)[C@@]3(O)C(O)=C1C2=O [Minocycline, minocycline] | 0.06 to 0.5 |
